# Reference: the supplement of paper PMC5949888
# Most values lie at the floor of the assay. Slopes are relative: functional sequences can read slightly below zero.
# Test system: Saccharomyces cerevisiae PS128 hsf1 delta, HSF1(1-493) fusion
# Test: growth estimate (transactivation domain function in HSF1 fusion, heat-shock survival) (a.u. (slope of normalised read count over time)); higher = stronger growth at 37°C, i.e. more transactivation activity
# Conditions: library: random library
# Description: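 Random 60-nt DNA library encoding peptides of up to 20 aa, fused to the C-terminus of yeast HSF1 residues 1-493 (C-terminal TAD deleted) and expressed from the native HSF1 promoter on a CEN plasmid in hsf1-deleted S. cerevisiae PS128. Cells were selected at 37°C on -trp 5-FOA plates for 0, 2, 4, 6 and 8 days and amplicons were sequenced. Growth estimate is the slope of a robust linear fit of total-sum-normalised read counts (normalised to the first time point) over time, using at least 2 replicates. Sequences are classed functional (TAD activity) above a threshold of -0.13, set from stop-codon control sequences.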
row,Substance,growth estimate
1,PVV,< -0.25
2,LGSLTARA,< -0.25
3,SRSRQRNSV,< -0.25
4,LRSRPKSGLTYSGLTLKGAV,< -0.25
5,NHGLSKR,-0.245
6,HGVTDLHDSGSTMGELLVPD,< -0.25
7,AWQRRRFDFFI,< -0.25
8,GGTYPEGGIESHLSRT,< -0.25
9,RTLTVTGSHWLRFFLDGSLL,< -0.25
10,EDRGFYILQ,< -0.25
11,LDHRKQRDANLVGVWSSNHQ,0.0071
12,TSPPDSGKSRGIGFLI,< -0.25
13,YSS,< -0.25
14,AQNACEAVTYKMRVFYAQGE,< -0.25
15,VCCGSIDLLKKSPL,< -0.25
16,SIEPARVWYQ,< -0.25
17,LIVEGHRSERPPRESLIVAR,< -0.25
18,DHFQLTDHIETSWERGSRRA,< -0.25
19,GGGEGVILQLPPAWILYT,< -0.25
20,NIWDVYTPRLRGRGAELVVL,< -0.25
21,GYIPLGP,< -0.25
22,AGRGC,< -0.25
23,HSKSTLLCWHSHVHLSQQLP,< -0.25
24,MYNWDQLL,0.855
25,HDQYGEKG,< -0.25
26,STKAGLFRRMCGRLPQK,< -0.25

row,Substance,growth estimate
1,STAEQDR,< -0.25
2,NQHISDPRLDVSKGCFSRLS,< -0.25
3,CENCIRSRV,< -0.25
4,NRSLALVTPVRRNLNRPLRA,< -0.25
5,LHQVCPSVLMRNSCYANRNP,< -0.25
6,HRGTRRRVVEITWGVASLMM,< -0.25
7,LQIFRYDDNNPRFPSSHRLP,< -0.25
8,RRMRLFALD,< -0.25
9,FRASLW,< -0.25
10,RGTFFRENLLRARVDV,< -0.25
11,FPQGSHPLAVYYWFRPARAV,< -0.25
12,RACQQEELAAFIVRC,< -0.25
13,KKCSKGRTHRLHRFHRNFLL,-0.243
14,QTTAVSTVVDPWRMPGRITI,< -0.25
15,SNWSNHPNVRTMISGCECGL,< -0.25
16,GCDLARTILR,< -0.25
17,RNALVGVDGITLCRHGRVRT,< -0.25
18,ATRQAAHNNSRGQPSPIMFP,< -0.25
19,VCTV,< -0.25
20,IPILLLSGTVRHQAS,< -0.25
21,VVDAVLPPVQ,< -0.25
22,CMSRQLQIYIILSQASRSVV,< -0.25
23,FLWGRPRGRLAWGNIYPIPA,< -0.25
24,AVKHAQSLVKLGIGIIDGQG,< -0.25
25,DWLLVNITRKRLVCCVEALS,< -0.25
26,SDPRVAYRLITF,< -0.25

row,Substance,growth estimate
1,ATTVRLSAWGVNTLAMEPWT,< -0.25
2,GKPTSDISLDRGQVKPAART,< -0.25
3,QGRVCVVSLRRSLFRFDGPP,< -0.25
4,RLRCGKGWLGVKYWEALTPD,< -0.25
5,VATLSGTRTSNLGGTSSLAR,< -0.25
6,QVKGEQALAE,< -0.25
7,VQRRYKLVGSRLSPLILALK,< -0.25
8,GLEVREERRSVEQRPWRMGK,< -0.25
9,GFNIANMADTK,< -0.25
10,LHEVS,< -0.25
11,TISRCHRSRAIIMA,< -0.25
12,DRQ,< -0.25
13,PRSYDSEVGKPVSNG,< -0.25
14,SLQGGRV,< -0.25
15,TGGISIRGL,< -0.25
16,AVHDPRTGT,< -0.25
17,REEAHRAKVGTRQTRSCSDY,< -0.25
18,LCTANQSNEVG,< -0.25
19,RIN,< -0.25
20,HRA,< -0.25
21,GHSGPKYDLL,< -0.25
22,PGVKALLCCTIPAAHVRRA,< -0.25
23,HFVYKDAKSKSTTGIRDGLA,< -0.25
24,RKESVPWQRHNGKWRHVGEE,< -0.25
25,RTLC,< -0.25
26,AVCGRCFYSGQTGRVMTGHS,< -0.25

# Some of the entries so far, as tab-separated lines.
row	Substance	growth estimate
3	QGRVCVVSLRRSLFRFDGPP	< -0.25
4	RLRCGKGWLGVKYWEALTPD	< -0.25
5	VATLSGTRTSNLGGTSSLAR	< -0.25
6	QVKGEQALAE	< -0.25

# (next part)

row,Substance,growth estimate
1,IKSANGSVVVLGIARGITQC,< -0.25
2,SMRRHALHDPPFARTGPRDT,< -0.25
3,NMS,< -0.25
4,GSLPKKSTRGISCW,< -0.25
5,KSLGASCRTSRARNSQPK,< -0.25
6,SRGSVGV,< -0.25
7,WSTGGPLLLIRLD,< -0.25
8,GAISVHETKDVLS,< -0.25
9,NPTSDLSAHA,< -0.25
10,KPISINRPPPPSLQRPVQPF,< -0.25
11,QPWSLSGSERRFAPAARTRV,< -0.25
12,GRKLWEVPFDVKDDLRLGNP,< -0.25
13,RAGIWVVSI,< -0.25
14,WAPP,< -0.25
15,NTSVMCYWRAYIINDLSFK,< -0.25
16,CGSFNSASNSRSEPTLTLAA,< -0.25
17,EIRKAVIVRTVHYSVFPQAC,< -0.25
18,PSSQTVTPVHIIG,< -0.25
19,VGVTGRLAREFPSGPL,< -0.25
20,IKSRIRTFC,< -0.25
21,GLGPPLPSTQWRERASRSAA,< -0.25
22,IKHFALGEQPPHVAYFTRRP,< -0.25
23,LVLRSFLVFNSQIPAIV,< -0.25
24,CASSYARN,< -0.25
25,SWKQINRYSMHAYCDHQARL,< -0.25
26,SFCYRPMGG,< -0.25

row,Substance,growth estimate
1,LVTRFKAYEDRLRRSSIT,-0.241
2,PTECSWTALRHNYPCQKLFR,< -0.25
3,RKRCVTIPYNDRSDLWRLPI,< -0.25
4,SLRHVNPLGGVLGH,-0.248
5,EWQFCPFV,-0.0769
6,VCPGNIKPQSARDP,< -0.25
7,GIIRS,< -0.25
8,PPVLMNPPRWL,< -0.25
9,GVATRTADNLPMITY,< -0.25
10,VGNLAAEPG,-0.246
11,TRGIRPRLWAKADVGYFLLL,< -0.25
12,FMVSGKGPRESGPARLGAIS,< -0.25
13,RYLKSPRGPCMFPTGKGKVD,< -0.25
14,SVPRFEVHEISVIISQGEYE,< -0.25
15,RAWGVNSTT,< -0.25
16,TISFLTGRD,< -0.25
17,SRIGMTFRLNSQGG,< -0.25
18,PGLRPAETARVGPTQGLNGP,< -0.25
19,ADRFQVMAIKTLCGQHASRV,< -0.25
20,ARAI,< -0.25
21,RETDNAQSTVVHYIQG,< -0.25
22,PSLPVAPLNDTFLIMFYCRG,< -0.25
23,AVIDASINTPSPLSRGRDRP,< -0.25
24,MQLHRTRFYPSLVGQFWQS,< -0.25
25,GSVWSD,< -0.25
26,SDFW,< -0.25

row,Substance,growth estimate
1,GYRQLSVMRCSGRRGSCRTV,< -0.25
2,DADEGRFEPPSRLS,< -0.25
3,TVTIITERRSSLLVVRRPRR,< -0.25
4,QEYRPTYLDTLLIGT,< -0.25
5,IYGTLTLPSYCGRRNRAWWL,< -0.25
6,LQFPLLQLSEDLQQIMEDCT,< -0.25
7,FGSGCDRLRYHLKR,< -0.25
8,REGKYGVGGTN,< -0.25
9,TSIIGRSLAIKEKGLLRVCT,< -0.25
10,DGTE,< -0.25
11,TAPSSERRQLVRQRA,< -0.25
12,SVGHFSSRYTGFSYWVGQ,< -0.25
13,SFLLN,< -0.25
14,SRLQGAYSCAYYDIRPSGCA,< -0.25
15,FRLDPRRLRGYYRPLAVGRH,< -0.25
16,LSRVKVVSSVPGGSGENTAM,< -0.25
17,DWPIKGTQPHFRRSNHR,< -0.25
18,RIPPSSTGFCSDASVSSALY,< -0.25
19,SKGR,< -0.25
20,DPLQIKVLVRLNPSESPRVA,< -0.25
21,LTSSTLCRSYAPGIDMRLAI,< -0.25

# Copied from the list.
# growth estimate with LSRVKVVSSVPGGSGENTAM is entered as < -0.25
# growth estimate with REGKYGVGGTN is entered as < -0.25
# growth estimate with SRLQGAYSCAYYDIRPSGCA is entered as < -0.25
# growth estimate with LTSSTLCRSYAPGIDMRLAI is entered as < -0.25
# growth estimate with FGSGCDRLRYHLKR is entered as < -0.25
